No constants are given. Whether binding was seen depends on the method and setting. Binding seen in cells or lysates may run through a third protein. Here binding means that the protein was enriched with, or labelled near, the bait; the list need not be complete.
Biological target: Kinesin family member 3A (mouse (endogenous in ovary)) (UniProt P28741)
Assay: affinity purification with mass spectrometry; rabbit anti-KIF3A antibody on Dynabeads Protein G, incubated with lysate of 6 mouse ovaries for 6 h at 4 °C; eluate analysed by LC-MS (Mascot search)

The chains behind the UniProt entries cited, without tags or fusion partners.
UniProt P28741: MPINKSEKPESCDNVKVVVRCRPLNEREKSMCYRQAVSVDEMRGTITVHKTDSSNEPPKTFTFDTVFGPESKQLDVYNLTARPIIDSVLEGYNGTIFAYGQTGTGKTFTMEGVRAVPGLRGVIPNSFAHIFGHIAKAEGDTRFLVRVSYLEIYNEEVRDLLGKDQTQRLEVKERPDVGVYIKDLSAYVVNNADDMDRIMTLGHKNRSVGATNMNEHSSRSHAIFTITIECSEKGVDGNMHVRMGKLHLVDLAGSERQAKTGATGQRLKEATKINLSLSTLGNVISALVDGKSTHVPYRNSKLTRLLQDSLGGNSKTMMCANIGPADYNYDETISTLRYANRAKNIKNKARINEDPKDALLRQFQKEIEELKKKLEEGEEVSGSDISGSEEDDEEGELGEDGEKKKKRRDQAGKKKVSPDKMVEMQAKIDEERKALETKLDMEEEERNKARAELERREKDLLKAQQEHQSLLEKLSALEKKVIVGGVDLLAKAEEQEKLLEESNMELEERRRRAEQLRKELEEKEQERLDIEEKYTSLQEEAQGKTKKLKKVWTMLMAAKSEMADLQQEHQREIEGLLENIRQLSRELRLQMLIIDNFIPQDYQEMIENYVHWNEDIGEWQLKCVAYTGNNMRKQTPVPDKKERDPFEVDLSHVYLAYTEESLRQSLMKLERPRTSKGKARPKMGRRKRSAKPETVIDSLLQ
UniProt Q9QWK5: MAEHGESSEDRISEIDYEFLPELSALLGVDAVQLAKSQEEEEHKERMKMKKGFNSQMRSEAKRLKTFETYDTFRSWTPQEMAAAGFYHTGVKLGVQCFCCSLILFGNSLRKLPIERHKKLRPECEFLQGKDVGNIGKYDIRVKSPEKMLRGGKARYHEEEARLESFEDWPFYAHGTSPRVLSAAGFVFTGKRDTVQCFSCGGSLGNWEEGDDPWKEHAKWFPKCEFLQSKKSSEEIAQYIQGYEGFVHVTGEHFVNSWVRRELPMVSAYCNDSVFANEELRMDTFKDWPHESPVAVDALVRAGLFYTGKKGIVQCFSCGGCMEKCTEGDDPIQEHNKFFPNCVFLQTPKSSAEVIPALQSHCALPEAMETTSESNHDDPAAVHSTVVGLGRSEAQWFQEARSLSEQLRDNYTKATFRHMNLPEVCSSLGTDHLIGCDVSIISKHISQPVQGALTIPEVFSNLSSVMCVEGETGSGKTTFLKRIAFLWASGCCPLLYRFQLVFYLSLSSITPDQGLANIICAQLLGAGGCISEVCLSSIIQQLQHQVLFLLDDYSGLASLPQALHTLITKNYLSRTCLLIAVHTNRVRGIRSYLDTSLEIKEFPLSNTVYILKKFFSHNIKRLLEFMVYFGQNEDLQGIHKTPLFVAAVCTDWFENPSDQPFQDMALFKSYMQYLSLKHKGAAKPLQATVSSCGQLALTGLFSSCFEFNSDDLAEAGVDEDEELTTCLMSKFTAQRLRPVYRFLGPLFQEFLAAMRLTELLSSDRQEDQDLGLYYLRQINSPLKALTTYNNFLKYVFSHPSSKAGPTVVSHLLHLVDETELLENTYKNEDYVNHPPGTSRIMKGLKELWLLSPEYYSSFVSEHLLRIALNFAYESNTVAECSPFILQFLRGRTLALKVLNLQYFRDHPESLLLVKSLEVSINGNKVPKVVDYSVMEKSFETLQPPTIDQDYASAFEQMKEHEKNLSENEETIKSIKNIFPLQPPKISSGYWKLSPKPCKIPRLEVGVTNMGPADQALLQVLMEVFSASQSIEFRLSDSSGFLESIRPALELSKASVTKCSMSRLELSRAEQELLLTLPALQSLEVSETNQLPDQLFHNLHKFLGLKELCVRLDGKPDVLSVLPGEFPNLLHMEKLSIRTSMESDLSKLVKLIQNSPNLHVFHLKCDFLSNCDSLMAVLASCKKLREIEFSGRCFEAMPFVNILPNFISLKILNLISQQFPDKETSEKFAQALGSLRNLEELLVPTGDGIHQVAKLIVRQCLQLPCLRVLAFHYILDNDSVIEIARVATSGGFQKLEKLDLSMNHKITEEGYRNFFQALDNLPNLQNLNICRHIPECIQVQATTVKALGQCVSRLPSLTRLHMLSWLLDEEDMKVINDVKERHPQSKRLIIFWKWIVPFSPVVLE
UniProt E9Q7G0: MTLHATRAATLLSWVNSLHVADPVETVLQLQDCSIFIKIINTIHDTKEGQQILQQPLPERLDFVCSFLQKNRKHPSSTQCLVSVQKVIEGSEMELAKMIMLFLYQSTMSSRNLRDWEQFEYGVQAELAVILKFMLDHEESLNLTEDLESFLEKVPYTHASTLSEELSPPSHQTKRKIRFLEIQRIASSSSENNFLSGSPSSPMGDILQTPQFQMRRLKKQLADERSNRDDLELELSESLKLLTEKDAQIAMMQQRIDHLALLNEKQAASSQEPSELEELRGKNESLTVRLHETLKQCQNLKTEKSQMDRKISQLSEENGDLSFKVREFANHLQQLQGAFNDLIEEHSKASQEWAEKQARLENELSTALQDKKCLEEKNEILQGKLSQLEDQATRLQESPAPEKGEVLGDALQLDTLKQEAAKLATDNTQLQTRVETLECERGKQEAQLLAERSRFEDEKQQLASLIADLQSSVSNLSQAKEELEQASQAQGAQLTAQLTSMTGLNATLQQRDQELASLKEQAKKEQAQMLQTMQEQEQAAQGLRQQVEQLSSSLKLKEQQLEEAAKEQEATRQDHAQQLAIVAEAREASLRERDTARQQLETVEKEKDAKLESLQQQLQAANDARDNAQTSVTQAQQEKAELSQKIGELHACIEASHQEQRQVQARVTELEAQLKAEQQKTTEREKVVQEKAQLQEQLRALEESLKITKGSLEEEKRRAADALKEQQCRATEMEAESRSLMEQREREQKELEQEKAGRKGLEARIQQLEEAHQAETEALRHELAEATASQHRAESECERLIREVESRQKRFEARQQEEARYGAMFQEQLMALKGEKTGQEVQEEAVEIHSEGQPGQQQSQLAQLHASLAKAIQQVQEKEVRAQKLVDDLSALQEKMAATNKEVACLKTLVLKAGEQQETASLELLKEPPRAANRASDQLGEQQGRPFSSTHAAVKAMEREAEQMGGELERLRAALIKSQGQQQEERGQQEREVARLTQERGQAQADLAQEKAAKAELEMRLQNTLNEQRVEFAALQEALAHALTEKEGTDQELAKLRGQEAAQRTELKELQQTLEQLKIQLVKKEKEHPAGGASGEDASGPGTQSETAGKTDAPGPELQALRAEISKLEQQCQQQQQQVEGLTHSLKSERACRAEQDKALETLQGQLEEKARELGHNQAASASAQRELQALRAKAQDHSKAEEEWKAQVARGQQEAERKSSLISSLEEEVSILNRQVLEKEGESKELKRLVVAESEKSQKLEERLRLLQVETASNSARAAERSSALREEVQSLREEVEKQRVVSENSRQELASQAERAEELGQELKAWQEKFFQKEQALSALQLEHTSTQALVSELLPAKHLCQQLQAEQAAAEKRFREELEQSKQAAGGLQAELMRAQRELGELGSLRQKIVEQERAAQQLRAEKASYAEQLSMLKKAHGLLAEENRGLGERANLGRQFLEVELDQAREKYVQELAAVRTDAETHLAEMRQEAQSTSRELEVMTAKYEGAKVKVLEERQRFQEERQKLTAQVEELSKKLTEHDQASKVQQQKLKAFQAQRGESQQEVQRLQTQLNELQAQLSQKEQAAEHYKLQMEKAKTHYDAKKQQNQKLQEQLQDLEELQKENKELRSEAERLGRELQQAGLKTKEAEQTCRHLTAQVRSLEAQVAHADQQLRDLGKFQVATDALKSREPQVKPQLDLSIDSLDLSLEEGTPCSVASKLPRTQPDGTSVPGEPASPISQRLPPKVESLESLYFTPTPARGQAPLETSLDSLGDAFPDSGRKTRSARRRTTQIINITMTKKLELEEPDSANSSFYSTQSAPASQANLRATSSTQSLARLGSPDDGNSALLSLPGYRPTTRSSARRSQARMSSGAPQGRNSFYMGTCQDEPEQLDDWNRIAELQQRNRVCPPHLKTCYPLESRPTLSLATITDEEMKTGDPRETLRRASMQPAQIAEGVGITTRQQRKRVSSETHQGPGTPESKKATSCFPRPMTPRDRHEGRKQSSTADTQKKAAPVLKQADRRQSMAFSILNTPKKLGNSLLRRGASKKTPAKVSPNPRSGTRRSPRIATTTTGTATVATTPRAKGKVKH

BIR1A (from UniProt Q9QWK5 1-1403) was tested, and the binding was “binds”.
“nuclear mitotic apparatus protein (from UniProt E9Q7G0 1-2094)” was tested, and the binding was “binds”.

Source: article PMC11001723
